Laboratory results from PubChem BioAssay AID1671190 (National Center for Advancing Translational Sciences (NCATS), 2021).
Values joined by “and” are separate entries in the source; they are usually repeats but may differ in a detail not shown here. Equal values may be shown once. Out of some 580,000 compounds screened, about 6,100 (1.1%) were called active. The shares of active, inactive and inconclusive entries below differ from those in the screen. Calls follow the shape of the dose curve; as a rule, active = well fitted inhibition curve with a large enough effect; inconclusive = small, poorly fitted or top-dose-only effect, or another doubt; inactive = no such curve, though single readings can be large or run the other way. Potencies of inconclusive entries are doubtful fits and often do not repeat.

The chains behind the UniProt entries cited, without tags or fusion partners. Where a name states a change or a piece, a line headed by the entry shows the natural chain unless it says otherwise.
UniProt P18054: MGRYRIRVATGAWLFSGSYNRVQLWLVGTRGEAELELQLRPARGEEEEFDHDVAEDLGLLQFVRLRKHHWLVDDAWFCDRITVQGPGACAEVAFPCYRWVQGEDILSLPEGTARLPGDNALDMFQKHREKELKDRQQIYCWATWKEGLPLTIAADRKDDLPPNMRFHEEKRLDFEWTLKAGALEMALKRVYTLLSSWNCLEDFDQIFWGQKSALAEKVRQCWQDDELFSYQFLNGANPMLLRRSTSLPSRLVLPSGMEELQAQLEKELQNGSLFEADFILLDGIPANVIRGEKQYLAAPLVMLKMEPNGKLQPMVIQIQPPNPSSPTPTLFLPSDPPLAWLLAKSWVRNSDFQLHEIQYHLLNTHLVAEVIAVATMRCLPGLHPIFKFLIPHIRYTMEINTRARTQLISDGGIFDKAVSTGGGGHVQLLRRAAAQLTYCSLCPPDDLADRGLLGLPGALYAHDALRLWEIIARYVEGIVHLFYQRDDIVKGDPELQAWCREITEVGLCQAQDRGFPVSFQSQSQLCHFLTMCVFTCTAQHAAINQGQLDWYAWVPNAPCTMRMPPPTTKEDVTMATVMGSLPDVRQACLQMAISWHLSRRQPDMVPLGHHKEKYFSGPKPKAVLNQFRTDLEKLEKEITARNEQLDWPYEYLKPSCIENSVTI

target: Polyunsaturated fatty acid lipoxygenase ALOX12 (Homo sapiens) (UniProt P18054); test: Primary qHTS assay for inhibitors of human arachidonate 12S-lipoxygenase (ALOX12): Round 2; settings: purified 12hLO, xylenol orange hydroperoxide absorbance; activity change, negative = inhibition: at 108 µM (top of the series) unless noted
Summary of the method: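 Purified human 12hLO at 150 nM in 25 mM Hepes, 0.01% Triton X-100, pH 7.0, preincubated 15 min at room temperature with compound. Reaction started with 40 uM arachidonic acid, 30 min at room temperature. Hydroperoxide measured by Fe-xylenol orange, 573/405 nm absorbance ratio.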
% is scaled to controls: 0 for no effect and ±100 for the full control effect; potency is read from the fitted curve at half-maximal effect.

**Q.** How did the Potency turn out when `COC(=O)[C@]12C[C@H](CC(=O)NCCCCc3ccccc3)C(=O)N(Cc3ccc4c(c3)OCO4)C1=C[C@H](C(C)(C)C)O[C@@H]2C` was run?
**A.** inconclusive: 28.2 µM [inhibitor, partial curve]

**Q.** `Cc1ccc2cc(CN(C)C(=O)c3cccc(Cl)c3)c(=O)[nH]c2c1` was tested. Which Potency did it give?
**A.** inconclusive: 50.1 µM [inhibitor, partial curve, poor fit] and inconclusive: 126 µM [inhibitor, single point]

**Q.** Which “activity change, negative = inhibition” value does the source give for `CCOC(=O)c1c(-c2ccc(OC)cc2)csc1/N=C/N(C)C` here?
**A.** inactive: 16.1%

**Q.** For `CCN(CC)c1ccc(/C=N/NC(=O)Nc2ccccc2)cc1`, which “activity change, negative = inhibition” value is on record?
**A.** inactive: -6.81%

**Q.** How did the “activity change, negative = inhibition” value turn out when `O=C(CN(c1cccc([N+](=O)[O-])c1)S(=O)(=O)c1ccccc1)NCc1ccccc1` was run?
**A.** inactive: -19.1%

**Q.** `O=C(Oc1cc(=O)oc2c1c(=O)n1c3c(cccc23)CC1)c1ccccc1` was tested. Which Potency did it give?
**A.** inconclusive: 7.94 µM [inhibitor, full curve, poor fit]

**Q.** With `c1ccc(Oc2ccccc2-c2cc(-c3cn[nH]c3)c3cncn3c2)cc1` as the compound, how does the Potency read?
**A.** inconclusive: 44.7 µM [inhibitor, full curve]

**Q.** With `NC(=O)CCC(NS(=O)(=O)c1ccc(Cl)cc1)C(=O)NCC1CCCCC1` (stereo unspecified) as the compound, how does the Potency read?
**A.** inconclusive: 0.224 µM [inhibitor, full curve, poor fit]

**Q.** `O=C(NCc1cccnc1)c1ccc2oc(-c3ccc(C(F)(F)F)cc3)nc2c1` was tested. Which “activity change, negative = inhibition” value did it give?
**A.** inactive: 52%

**Q.** `O=C(c1ccc(Cl)cc1O)N1CCN(S(=O)(=O)c2ccc(Br)cc2)CC1` was tested. Which Potency did it give?
**A.** inconclusive: 44.7 µM [inhibitor, partial curve, poor fit]

**Q.** How did the Potency turn out when `O=C(c1ccsc1)N1CCC2(CC1)NC(=O)N(Cc1ccccc1)C2=O` was run?
**A.** inconclusive: 56.2 µM [inhibitor, partial curve, poor fit]

**Q.** With `CCn1c(C)c(C(C)=O)c2cc(OCC(O)CN3CCCCC3)ccc21` (stereo unspecified) as the compound, how does the Potency read?
**A.** inconclusive: 2.24 µM [inhibitor, partial curve, poor fit]

**Q.** For `CC(CN1CCOCC1)OC(=O)c1cccs1` (stereo unspecified), which Potency is on record?
**A.** inconclusive: 35.5 µM [inhibitor, single point]

**Q.** `CCCCN(C=O)c1c(CC)nc2c(OCCC)cccn12` was tested. Which Potency did it give?
**A.** inconclusive: 70.8 µM [inhibitor, partial curve, poor fit]

**Q.** With `c1ccc(Cn2cc(CSc3ccccc3)nn2)cc1` as the compound, how does the Potency read?
**A.** inconclusive: 112 µM [inhibitor, single point]

**Q.** Which Potency does the source give for `Cc1c(NC(=O)C2(c3ccccc3)CC2)cccc1C(=O)N1CCc2sccc2C1` here?
**A.** inconclusive: 100 µM [inhibitor, single point]

**Q.** With `CCCCc1c(-c2ccccc2OC)ncn1Cc1ccc(C)cc1` as the compound, how does the Potency read?
**A.** inconclusive: 44.7 µM [inhibitor, partial curve, poor fit]

**Q.** `CC(C)(C)c1ccc(NC(=O)c2cc(C3CCCN(C(=O)CCc4ccccc4)C3)on2)cc1` (stereo unspecified) was tested. Which Potency did it give?
**A.** inconclusive: 158 µM [inhibitor, partial curve, poor fit]

**Q.** Which Potency does the source give for `O=C(Cn1cc(C(=O)c2ccncc2)c(=O)c2cc(F)ccc21)Nc1ccc(Cl)cc1` here?
**A.** inconclusive: 39.8 µM [inhibitor, partial curve, poor fit]

**Q.** Which Potency does the source give for `CC(C)CCNC(=O)C1CCNCC1` here?
**A.** inconclusive: 39.8 µM [inhibitor, partial curve, poor fit]

**Q.** Which Potency does the source give for `CC(CN1CCCC1)OC(=O)c1ccc(F)cc1` (stereo unspecified) here?
**A.** inconclusive: 126 µM [inhibitor, partial curve, poor fit]

**Q.** For `C=CCNC1=C(Cl)C(=O)N(c2cccc(Cl)c2Cl)C1=O`, which Potency is on record?
**A.** inconclusive: 141 µM [inhibitor, single point]

**Q.** With `C[C@@H]1NC(=O)[C@H](CCCN=C(N)N)NC(=O)c2cc([N+](=O)[O-])cc(I)c2NCCC[C@@H](C(N)=O)NC1=O` as the compound, how does the Potency read?
**A.** inconclusive: 44.7 µM [inhibitor, partial curve, poor fit]

**Q.** For `Cc1cccc(NC(=S)Nc2cccc3ccccc23)c1`, which Potency is on record?
**A.** inconclusive: 35.5 µM [inhibitor, partial curve, poor fit]

**Q.** With `S=C(NCCc1ccccc1)Nc1ccc(Cl)cc1NC(=S)NCCc1ccccc1` as the compound, how does the Potency read?
**A.** active: 17.8 µM

**Q.** `COc1ccc2c(c1OC)C(=O)OC2Nc1nc(-c2ccc(Br)cc2)cs1` (stereo unspecified) was tested. Which Potency did it give?
**A.** inconclusive: 35.5 µM [inhibitor, partial curve, poor fit]

**Q.** With `COc1ccccc1CNC(=O)CCn1c(=O)c2ccccc2n(CC(=O)Nc2ccc(Br)cc2F)c1=O` as the compound, how does the Potency read?
**A.** inconclusive: 126 µM [inhibitor, partial curve, poor fit]

**Q.** Which Potency does the source give for `O=C(Nc1ccccn1)c1ccc(Cl)c([N+](=O)[O-])c1` here?
**A.** inconclusive: 25.1 µM [inhibitor, partial curve, poor fit]

**Q.** For `O=C1CCC/C1=c1\s/c(=C\c2cccnc2)c(=O)n1-c1ccccc1`, which Potency is on record?
**A.** inconclusive: 35.5 µM [inhibitor, single point]

**Q.** `O=C(CC1CCCN(c2cnn(CC3CC3)c(=O)c2)C1)NCc1ccccc1` (stereo unspecified) was tested. Which “activity change, negative = inhibition” value did it give?
**A.** inactive: 38.4%

**Q.** `Clc1ccccc1-c1ccc2ncnc(NCCN3CCOCC3)c2c1` was tested. Which Potency did it give?
**A.** inconclusive: 3.98 µM [inhibitor, full curve, poor fit]

**Q.** Which Potency does the source give for `COCCn1c(SCC(=O)N(C)C2CCS(=O)(=O)C2)nc2ccccc2c1=O` (stereo unspecified) here?
**A.** inconclusive: 35.5 µM [inhibitor, full curve, poor fit]

**Q.** `C=CCNc1nc(-c2cc(C)n(-c3c(C)n(C)n(-c4ccccc4)c3=O)c2C)cs1` was tested. Which Potency did it give?
**A.** inconclusive: 11.2 µM [inhibitor, full curve, poor fit]

**Q.** How did the Potency turn out when `Cc1ccc(NC(=S)N(Cc2cccs2)Cc2cc3cc(C)cc(C)c3[nH]c2=O)cc1` was run?
**A.** inconclusive: 56.2 µM [inhibitor, partial curve, poor fit]

**Q.** `COc1ccc(C(=O)Nc2ccc(S(=O)(=O)Nc3nccnc3OC)cc2)cc1OC` was tested. Which Potency did it give?
**A.** inconclusive: 1.78 µM [inhibitor, full curve, poor fit]

**Q.** Which “activity change, negative = inhibition” value does the source give for `COc1ccc(C2c3c(n(C)c4ccccc34)C(=O)N2CC(=O)Nc2cc(Cl)ccc2C)cc1` (stereo unspecified) here?
**A.** inactive: -18.4%

**Q.** How did the “activity change, negative = inhibition” value turn out when `CN(C)C(=O)c1cccnc1OC1CCN(CCc2ccccc2)CC1` was run?
**A.** inactive: 11.1%

**Q.** `CCN(CC)S(=O)(=O)c1ccc(NC(=O)c2ccc(N3CCCC3=O)cc2)cc1` was tested. Which Potency did it give?
**A.** inconclusive: 11.2 µM [inhibitor, partial curve, poor fit]

**Q.** With `CC(=O)Nc1ccc(S(=O)(=O)N[C@H]2CO[C@H]3[C@@H]2OC[C@@H]3n2nnnc2Oc2ccc(-n3ccnc3)cc2)cc1` as the compound, how does the “activity change, negative = inhibition” value read?
**A.** inactive: 23.9%

**Q.** Which Potency does the source give for `C=CCn1c(SCC(=O)Nc2ccc(Br)cc2)nc(O)cc1=O` here?
**A.** active: 3.16 µM

**Q.** `CC(C)c1ccccc1NC(=O)C(Sc1ccccc1)c1ccccc1` (stereo unspecified) was tested. Which “activity change, negative = inhibition” value did it give?
**A.** inactive: -5%

**Q.** Which Potency does the source give for `O=C(Nc1nn(CC(F)(F)F)c2cccc(Oc3cccnc3)c12)c1cocn1` here?
**A.** inconclusive: 25.1 µM [inhibitor, full curve]

**Q.** How did the Potency turn out when `Cc1ccc(CNC(=O)Nc2cccs2)cc1` was run?
**A.** inconclusive: 39.8 µM [inhibitor, partial curve, poor fit]

**Q.** `C[n+]1ccccc1/C=N/O` was tested. Which Potency did it give?
**A.** inconclusive: 39.8 µM [inhibitor, partial curve]

**Q.** Which Potency does the source give for `COc1ccc(-c2ccoc2)cc1[C@H]1[C@H]2C=CC[C@@H](C)[C@@H]2C(=O)N1Cc1ccccc1` here?
**A.** inconclusive: 50.1 µM [inhibitor, single point]

**Q.** How did the Potency turn out when `COc1ccc(CC(N)c2csc(NC(=O)Nc3ccc(C(C)C)cc3)n2)cc1` (stereo unspecified) was run?
**A.** inconclusive: 50.1 µM [inhibitor, partial curve, poor fit]

**Q.** `COc1ccc(NC(=O)c2sc3c(c2C)C(c2cccc(C(F)(F)F)c2)CC(=O)N3)cc1` (stereo unspecified) was tested. Which Potency did it give?
**A.** inconclusive: 39.8 µM [inhibitor, partial curve, poor fit]

**Q.** How did the Potency turn out when `CCOC(=O)CSc1nc2cc3c(cc2c(=O)n1CCCC(=O)NCCc1ccc(OC)c(OC)c1)OCO3` was run?
**A.** inconclusive: 100 µM [inhibitor, single point]

**Q.** How did the “activity change, negative = inhibition” value turn out when `O=C(Cn1cnc2ccccc21)Nc1ccc(C(=O)O)cc1` was run?
**A.** inactive: 8.31%

**Q.** Which Potency does the source give for `COc1ccc(C2CC(=O)C3=C(C2)OC(N)=C(C#N)C3c2cccc(Br)c2)cc1` (stereo unspecified) here?
**A.** inconclusive: 44.7 µM [inhibitor, partial curve, poor fit]

**Q.** How did the “activity change, negative = inhibition” value turn out when `COC(=O)c1c(NC(=O)c2ccccc2C(=O)O)sc2c1CCC2` was run?
**A.** inactive: 49.3%

**Q.** Which “activity change, negative = inhibition” value does the source give for `CCC(C)(C)C1CCC2(CC1)NC(=O)N(CC(=O)N1CCN(c3ccccc3OC)CC1)C2=O` (stereo unspecified) here?
**A.** inactive: -11.2%

**Q.** For `CCOc1ccc(N2C(=O)/C(=C/c3cccs3)N(CC(=O)OC)C2=S)cc1`, which “activity change, negative = inhibition” value is on record?
**A.** inactive: -4.78%

**Q.** `CN(C(=O)COC(=O)c1c2c(nc3ccccc13)/C(=C/c1cccc([N+](=O)[O-])c1)CCC2)C1CCS(=O)(=O)C1` (stereo unspecified) was tested. Which “activity change, negative = inhibition” value did it give?
**A.** inactive: -28.8%

**Q.** With `O=C([C@H]1O[C@@H](n2ccc(=O)[nH]c2=O)[C@H](O)[C@@H]1O)N1CCN(Cc2ccccn2)CC1` as the compound, how does the Potency read?
**A.** inconclusive: 126 µM [inhibitor, single point]

**Q.** For `CCN1CCc2nc3sc(C(=O)N4CCc5ccccc5C4)c(N)c3cc2C1`, which Potency is on record?
**A.** inconclusive: 50.1 µM [inhibitor, partial curve, poor fit]

**Q.** How did the “activity change, negative = inhibition” value turn out when `Cc1cccc(N2CCN(C(=O)c3cc(S(=O)(=O)N4CCCC4)cn3C)CC2)c1C` was run?
**A.** inactive: -1.69%

**Q.** Which Potency does the source give for `CCCN(C(=O)c1cc(CC)c(C)s1)c1c(N)n(Cc2ccccc2)c(=O)[nH]c1=O` here?
**A.** inconclusive: 79.4 µM [inhibitor, partial curve, poor fit]

**Q.** How did the Potency turn out when `O=C(CN(CC(=O)Nc1ccc(Br)cc1)CC(=O)Nc1ccc(Br)cc1)Nc1ccc(Br)cc1` was run?
**A.** active: 11.2 µM

**Q.** With `O=C1N/C(=C/c2ccc(Br)cc2)C(O)=C1C=NCc1ccccc1` as the compound, how does the “activity change, negative = inhibition” value read?
**A.** inactive: -0.474%

**Q.** Which Potency does the source give for `O=C(c1nnc(CN2CCN(c3ccccn3)CC2)n1-c1ccccc1)N1CCC[C@@H]1c1nc2ccccc2[nH]1` here?
**A.** inconclusive: 50.1 µM [inhibitor, partial curve]
